Results deposited as PubChem BioAssay AID1259405 (NCATS, 2018)
Assay: 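Knock-downs that lift recombinant protein yield in hamster ovary cells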 (primary screen). System: Chinese hamster CHO-K1 ovary cells with stable secreted eGFP expression. Reagents: single siRNA against mouse genes, 0.8 pmol siRNA per well (2 µl of 400 nM stock). Time to read-out: 3 days. Measured: 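Per-well intracellular GFP measured by laser scanning cytometry, plus viability from ATP luminescence, each relative to plate median of non-targeting control wells, in %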. Scale: GFP, % of control: higher = more GFP per well, higher productivity; viability (ATP), % of control: higher = more viable cells (more ATP). Hit rule: 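Called active when intracellular GFP, relative to negative control, is at or above 120%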.
Here is an unselected part of about 50,000 deposited reagents. About 4,000 of them (8%) were called active. 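Mouse siRNA library applied to hamster cells; one well for each siRNA.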 Unmarked entries are inactive. The numbers tell different reagents against one gene apart. Reagent sequences are not shown.

| target | siRNA no. | GFP, % of control | viability (ATP), % of control |
| --- | --- | --- | --- |
| Txlna (GeneID 109658) | 1 | 56.9 | 71.5 |
| Txlna (GeneID 109658) | 2 | 47.2 | 23.2 |
| Txlna (GeneID 109658) | 3 | 51 | 37.9 |
| Htr3a (GeneID 15561) | 1 | 82.1 | 70.1 |
| Htr3a (GeneID 15561) | 2 | 82.6 | 47.6 |
| Htr3a (GeneID 15561) | 3 | 136 (active) | 71 |
| Rusc1 (GeneID 72296) | 1 | 79.3 | 52.6 |
| Rusc1 (GeneID 72296) | 2 | 90 | 73.9 |
| Rusc1 (GeneID 72296) | 3 | 68.5 | 70.1 |
| Htra3 (GeneID 78558) | 1 | 60.3 | 84.6 |
| Htra3 (GeneID 78558) | 2 | 89 | 85.4 |
| Htra3 (GeneID 78558) | 3 | 76.4 | 72.7 |
| Fam76b (GeneID 72826) | 1 | 129 (active) | 90.9 |
| Fam76b (GeneID 72826) | 2 | 46.4 | 73.1 |
| Fam76b (GeneID 72826) | 3 | 90.7 | 69.5 |
| Umodl1 (GeneID 52020) | 1 | 75.4 | 89.3 |
| Umodl1 (GeneID 52020) | 2 | 84.2 | 79.4 |
| Umodl1 (GeneID 52020) | 3 | 196 (active) | 82.1 |
| Specc1 (GeneID 432572) | 1 | 67.6 | 74.4 |
| Specc1 (GeneID 432572) | 2 | 73.2 | 79.9 |
| Specc1 (GeneID 432572) | 3 | 94.9 | 79.6 |
| Nrxn1 (GeneID 18189) | 1 | 94.6 | 87.8 |
| Nrxn1 (GeneID 18189) | 2 | 57.2 | 79.8 |
| Nrxn1 (GeneID 18189) | 3 | 110 | 111 |
| Emp3 (GeneID 13732) | 1 | 73.1 | 60 |
| Emp3 (GeneID 13732) | 2 | 73.4 | 77.7 |
| Emp3 (GeneID 13732) | 3 | 37.9 | 51 |
| Zfp758 (GeneID 224598) | 1 | 60.7 | 72.9 |
| Zfp758 (GeneID 224598) | 2 | 66.4 | 52.3 |
| Zfp758 (GeneID 224598) | 3 | 84 | 84.5 |
| Serpini1 (GeneID 20713) | 1 | 106 | 110 |
| Serpini1 (GeneID 20713) | 2 | 46.8 | 48.4 |
| Serpini1 (GeneID 20713) | 3 | 107 | 86.7 |
| Cstdc2 (GeneID 77705) | 1 | 87.8 | 68.4 |
| Cstdc2 (GeneID 77705) | 2 | 74.3 | 54.4 |
| Cstdc2 (GeneID 77705) | 3 | 25.4 | 40.2 |
| Socs1 (GeneID 12703) | 1 | 65.6 | 41.8 |
| Socs1 (GeneID 12703) | 2 | 21.8 | 37.2 |
| Socs1 (GeneID 12703) | 3 | 86.9 | 82.9 |
| Chst2 (GeneID 54371) | 1 | 105 | 74.6 |
| Chst2 (GeneID 54371) | 2 | 97.3 | 74.6 |
| Chst2 (GeneID 54371) | 3 | 121 (active) | 111 |
| P2rx3 (GeneID 228139) | 1 | 79.9 | 64.7 |
| P2rx3 (GeneID 228139) | 2 | 52.6 | 59.7 |
| P2rx3 (GeneID 228139) | 3 | 84.8 | 68.9 |
| Pla2g15 (GeneID 192654) | 1 | 107 | 107 |
| Pla2g15 (GeneID 192654) | 2 | 65.3 | 77.2 |
| Pla2g15 (GeneID 192654) | 3 | 61.6 | 61.7 |
| Xrcc4 (GeneID 108138) | 1 | 62.6 | 51.4 |
| Xrcc4 (GeneID 108138) | 2 | 93.4 | 86 |
| Xrcc4 (GeneID 108138) | 3 | 92.2 | 99.8 |
| Snrpd1 (GeneID 20641) | 1 | 120 (active) | 115 |
| Snrpd1 (GeneID 20641) | 2 | 60.9 | 48 |
| Ldha (GeneID 16828) | 1 | 69.6 | 101 |
| Ldha (GeneID 16828) | 2 | 80.7 | 71.6 |
| Ldha (GeneID 16828) | 3 | 73.5 | 86 |
| Sdc1 (GeneID 20969) | 1 | 67.3 | 61.8 |
| Sdc1 (GeneID 20969) | 2 | 28.8 | 28.8 |
| Sdc1 (GeneID 20969) | 3 | 44.2 | 45.4 |
| Arhgap12 (GeneID 75415) | 1 | 125 (active) | 64.5 |
| Arhgap12 (GeneID 75415) | 2 | 50.5 | 118 |
| Arhgap12 (GeneID 75415) | 3 | 93.7 | 108 |
| Atp4b (GeneID 11945) | 1 | 91.3 | 89.2 |
| Atp4b (GeneID 11945) | 2 | 115 | 93.2 |
| Atp4b (GeneID 11945) | 3 | 76.7 | 56.3 |
| Sgk3 (GeneID 170755) | 1 | 88.8 | 84.1 |
| Sgk3 (GeneID 170755) | 2 | 60.9 | 74.2 |
| Sgk3 (GeneID 170755) | 3 | 68.9 | 55.8 |
| Mtmr9 (GeneID 210376) | 1 | 108 | 78.7 |
| Mtmr9 (GeneID 210376) | 2 | 49.9 | 52.2 |
| Mtmr9 (GeneID 210376) | 3 | 59.9 | 88.9 |
| Kdm4b (GeneID 193796) | 1 | 44.4 | 68.3 |
| Kdm4b (GeneID 193796) | 2 | 88.2 | 88.7 |
| Kdm4b (GeneID 193796) | 3 | 58.1 | 82.6 |
| Or1j16 (GeneID 258947) | 1 | 80.1 | 63.1 |
| Or1j16 (GeneID 258947) | 2 | 97.5 | 82.1 |
| Or1j16 (GeneID 258947) | 3 | 54.6 | 50.1 |
| Or2a7 (GeneID 18310) | 1 | 24.9 | 23.2 |
| Or2a7 (GeneID 18310) | 2 | 78.8 | 78.8 |
| Or2a7 (GeneID 18310) | 3 | 45.6 | 45.7 |
| Gm4736 (GeneID 100502592) | 1 | 78.1 | 37.6 |
| Gm4736 (GeneID 100502592) | 2 | 87.8 | 50.2 |
| Gm4736 (GeneID 100502592) | 3 | 68.5 | 39.9 |
| Eomes (GeneID 13813) | 1 | 57 | 80.6 |
| Eomes (GeneID 13813) | 2 | 86.6 | 99.1 |
| Or7e175 (GeneID 258550) | 1 | 69 | 36.4 |
| Or7e175 (GeneID 258550) | 2 | 48.3 | 61.4 |
| Or7e175 (GeneID 258550) | 3 | 104 | 97.3 |
| Galm (GeneID 319625) | 1 | 76.9 | 71.5 |
| Galm (GeneID 319625) | 2 | 77.3 | 59 |
| Galm (GeneID 319625) | 3 | 54.6 | 76.7 |
| Cplx2 (GeneID 12890) | 1 | 50.4 | 73.3 |
| Cplx2 (GeneID 12890) | 2 | 33 | 46.9 |
| Cplx2 (GeneID 12890) | 3 | 113 | 106 |
| Eda (GeneID 13607) | 1 | 76.2 | 77.4 |
| Eda (GeneID 13607) | 2 | 92.5 | 83.2 |
| Eda (GeneID 13607) | 3 | 131 (active) | 60 |
| Cntn1 (GeneID 12805) | 1 | 63.5 | 57.6 |
| Cntn1 (GeneID 12805) | 2 | 104 | 89.1 |
| Vta1 (GeneID 66201) | 1 | 93.1 | 97 |
| Vta1 (GeneID 66201) | 2 | 24.6 | 42.4 |
| Vta1 (GeneID 66201) | 3 | 79.2 | 57.6 |
| Cep104 (GeneID 230967) | 1 | 68 | 66.5 |
| Cep104 (GeneID 230967) | 2 | 66.3 | 72.3 |
| Cep104 (GeneID 230967) | 3 | 120 (active) | 129 |
| Smyd5 (GeneID 232187) | 1 | 88.6 | 114 |
| Smyd5 (GeneID 232187) | 2 | 72.8 | 80.3 |
| Smyd5 (GeneID 232187) | 3 | 58.7 | 59.4 |

An excerpt taken from the entries so far, as a working copy:
| target | siRNA no. | GFP, % of control | viability (ATP), % of control |
| --- | --- | --- | --- |
| Or2a7 (GeneID 18310) | 3 | 45.6 | 45.7 |
| Gm4736 (GeneID 100502592) | 1 | 78.1 | 37.6 |
| Gm4736 (GeneID 100502592) | 2 | 87.8 | 50.2 |
| Gm4736 (GeneID 100502592) | 3 | 68.5 | 39.9 |
| Eomes (GeneID 13813) | 1 | 57 | 80.6 |
| Eomes (GeneID 13813) | 2 | 86.6 | 99.1 |
| Or7e175 (GeneID 258550) | 1 | 69 | 36.4 |
| Or7e175 (GeneID 258550) | 2 | 48.3 | 61.4 |
| Or7e175 (GeneID 258550) | 3 | 104 | 97.3 |
| Galm (GeneID 319625) | 1 | 76.9 | 71.5 |
| Galm (GeneID 319625) | 2 | 77.3 | 59 |
| Galm (GeneID 319625) | 3 | 54.6 | 76.7 |
| Cplx2 (GeneID 12890) | 1 | 50.4 | 73.3 |
| Cplx2 (GeneID 12890) | 2 | 33 | 46.9 |
| Cplx2 (GeneID 12890) | 3 | 113 | 106 |
